Reference: patent US20020025510A1, “Screening methods based on superactivated alpha V beta 3 integrin” (priority 2000, published 2002)
No constants are given. Whether binding was seen depends on the method and setting. Some binding calls cover weakened binding; strength is not graded here.

Chains of the proteins cited; added tags and fusions are not shown. Lines headed by an entry give the natural chain unless they say otherwise; changes in a name come on top. Residues count along the entry.
UniProt P06756: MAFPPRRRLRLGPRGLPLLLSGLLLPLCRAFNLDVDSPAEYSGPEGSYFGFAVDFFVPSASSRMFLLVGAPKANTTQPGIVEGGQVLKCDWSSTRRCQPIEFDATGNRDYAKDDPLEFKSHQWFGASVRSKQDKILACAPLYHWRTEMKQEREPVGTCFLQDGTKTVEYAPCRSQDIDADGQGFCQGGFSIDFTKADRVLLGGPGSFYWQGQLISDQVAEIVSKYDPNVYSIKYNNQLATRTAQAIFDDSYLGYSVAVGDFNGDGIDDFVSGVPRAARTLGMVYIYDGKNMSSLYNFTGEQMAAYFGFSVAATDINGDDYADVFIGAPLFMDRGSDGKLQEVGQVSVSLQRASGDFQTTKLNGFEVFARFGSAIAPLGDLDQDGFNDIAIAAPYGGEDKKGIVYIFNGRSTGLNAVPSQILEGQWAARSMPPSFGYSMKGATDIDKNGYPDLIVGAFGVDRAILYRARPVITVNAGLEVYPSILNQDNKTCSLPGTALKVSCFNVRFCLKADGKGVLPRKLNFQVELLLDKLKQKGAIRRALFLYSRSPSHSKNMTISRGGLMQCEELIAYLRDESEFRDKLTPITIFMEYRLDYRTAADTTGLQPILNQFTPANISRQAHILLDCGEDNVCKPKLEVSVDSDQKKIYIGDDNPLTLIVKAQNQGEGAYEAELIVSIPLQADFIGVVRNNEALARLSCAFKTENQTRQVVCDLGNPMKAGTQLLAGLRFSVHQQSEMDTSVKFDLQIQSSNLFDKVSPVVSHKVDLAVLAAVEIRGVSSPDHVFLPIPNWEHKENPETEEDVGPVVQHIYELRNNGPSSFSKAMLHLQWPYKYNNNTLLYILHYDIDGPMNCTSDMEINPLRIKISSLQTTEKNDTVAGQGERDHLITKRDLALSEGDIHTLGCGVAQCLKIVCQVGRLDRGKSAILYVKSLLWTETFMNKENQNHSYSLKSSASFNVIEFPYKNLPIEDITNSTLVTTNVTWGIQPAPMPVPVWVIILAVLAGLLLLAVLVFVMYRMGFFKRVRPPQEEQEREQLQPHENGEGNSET
UniProt P08253, residues 445-660: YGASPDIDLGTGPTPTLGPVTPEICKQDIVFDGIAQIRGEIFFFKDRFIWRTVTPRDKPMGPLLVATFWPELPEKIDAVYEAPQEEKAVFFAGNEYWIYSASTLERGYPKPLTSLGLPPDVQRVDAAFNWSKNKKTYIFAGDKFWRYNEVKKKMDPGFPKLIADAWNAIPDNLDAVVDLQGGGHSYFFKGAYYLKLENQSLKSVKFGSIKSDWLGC

Biological target: integrin αvβ3 with the wild type β3 subunit, on β3-MCF7 cells (human) (UniProt P06756)
Assay: adhesion of cells for 8 hours to PEX coated at 20 µg/ml

Substance: recombinant C-terminal domain of MMP-2 (PEX), FLAG-fusion protein (from UniProt P08253 445-660)
- binding: binds
